Values from PubChem BioAssay AID1259405 (NCATS, 2018).
Purpose: 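Knock-downs that lift recombinant protein yield in hamster ovary cells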 (primary screen). System: Chinese hamster CHO-K1 ovary cells with stable secreted eGFP expression. Reagents: single siRNA against mouse genes, 0.8 pmol siRNA per well (2 µl of 400 nM stock). Duration: 3 days. Detection: 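Per-well intracellular GFP measured by laser scanning cytometry, plus viability from ATP luminescence, each relative to plate median of non-targeting control wells, in %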. Scale: GFP, % of control: higher = more GFP per well, higher productivity. Hit rule: 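Called active when intracellular GFP, relative to negative control, is at or above 120%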.
Shown is a random part of about 50,000 reagents tested. About 4,000 of them (8%) count as active. 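Mouse siRNA library applied to hamster cells; one well for each siRNA.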 A number with no mark means an inactive call. Reagents against one gene are numbered here. Further read-outs or replicates are left out here. No sequences are given here.

GFP, % of control, by gene and reagent
Ttll13 (tubulin tyrosine ligase-like family, member 13): #1 97.4; #2 107; #3 35.4
Hnrnpa1 (heterogeneous nuclear ribonucleoprotein A1): #1 81; #2 102; #3 61.1
Slc46a2: #1 99.6; #2 66.5; #3 84
Jmjd1c (jumonji domain containing 1C): #1 87.1; #2 90.5
Nr1h3 (nuclear receptor subfamily 1, group H, member 3): #1 63.6; #2 90.7
Ptgfr (prostaglandin F receptor): #1 86.5; #2 51.8; #3 64.9
Brat1 (BRCA1-associated ATM activator 1): #1 63.6; #2 55.5; #3 113
Gorab (golgin, RAB6-interacting): #1 53.7; #2 95.4; #3 45.6
Ska3 (spindle and kinetochore associated complex subunit 3): #1 63.5; #2 89.2; #3 120 (active)
Cysltr1 (cysteinyl leukotriene receptor 1): #1 55.3; #2 60.3; #3 49.9
Tlx1 (T cell leukemia, homeobox 1): #1 104; #2 88.1
Dbndd1 (dysbindin domain containing 1): #1 98.1; #2 71.2; #3 94.1
Slc4a10: #1 137 (active); #2 49.5; #3 64.8
Vmn2r37 (vomeronasal 2, receptor 37): #1 64.8; #2 67.6; #3 73.6
Wnt3 (WNT family member 3): #1 80.8; #2 65.5; #3 39.8
Abcd4 (ATP-binding cassette, sub-family D member 4): #1 71.7; #2 32.3; #3 63.1
Ric8a (RIC8 guanine nucleotide exchange factor A): #1 64; #2 54.1; #3 76.6
Pla2r1 (phospholipase A2 receptor 1): #1 70.9; #2 77.2; #3 81.9
Pef1 (penta-EF hand domain containing 1): #1 57.3; #2 99.5
Gdap10 (ganglioside-induced differentiation-associated-protein 10): #1 45.6; #2 33.9; #3 57.5
Kif27 (kinesin family member 27): #1 101; #2 73.5
Prepl (prolyl endopeptidase-like): #1 98.4; #2 62.6; #3 38.2
Orc1 (origin recognition complex, subunit 1): #1 80.6; #2 76.5
Ankrd13b (ankyrin repeat domain 13b): #1 72.2; #2 97.2; #3 53.1
Mtmr7 (myotubularin related protein 7): #1 84.3; #2 114; #3 79.3
Mef2c (myocyte enhancer factor 2C): #1 56.2; #2 35.2; #3 79.6
Smyd2 (SET and MYND domain containing 2): #1 66.4; #2 90.5
Dnmt3a (DNA methyltransferase 3A): #1 87.7; #2 118; #3 78.8
Vps45 (vacuolar protein sorting 45): #1 56.4; #2 220 (active); #3 82.6
Flrt1 (fibronectin leucine rich transmembrane protein 1): #1 107; #2 58.9; #3 59.7
Hoxc6 (homeobox C6): #1 97.5; #2 82.2; #3 81.6
Ssr1 (signal sequence receptor, alpha): #1 98.7; #2 62.6
Ahnak (AHNAK nucleoprotein): #1 71.5; #2 68.4; #3 67.1
Tpr (translocated promoter region, nuclear basket protein): #1 24.4; #2 58.9; #3 105
Sun1 (Sad1 and UNC84 domain containing 1): #1 40.3; #2 75.1; #3 67.3
Strm (striamin): #1 63.2; #2 71.9; #3 126 (active)
Rhobtb2 (Rho-related BTB domain containing 2): #1 77.3; #2 73.7; #3 53.8
Slc7a2: #1 75.9; #2 58.3; #3 103
Wnt6 (WNT family member 6): #1 105; #2 100; #3 53.2

Not a retest: 5 of the entries above.
GFP, % of control, by gene and reagent
Gorab (golgin, RAB6-interacting): #2 95.4; #3 45.6
Ska3 (spindle and kinetochore associated complex subunit 3): #1 63.5; #2 89.2; #3 120 (active)
